# Data from article PMC7819943, “Rice protein-binding microarrays: a tool to detect cis-acting elements near promoter regions in rice”.
# Some of the results follow.
# Biological target: T1, OsSMF1 (Oryza sativa, UniProt Q6ZLB0 1-436)
# T1 sequence: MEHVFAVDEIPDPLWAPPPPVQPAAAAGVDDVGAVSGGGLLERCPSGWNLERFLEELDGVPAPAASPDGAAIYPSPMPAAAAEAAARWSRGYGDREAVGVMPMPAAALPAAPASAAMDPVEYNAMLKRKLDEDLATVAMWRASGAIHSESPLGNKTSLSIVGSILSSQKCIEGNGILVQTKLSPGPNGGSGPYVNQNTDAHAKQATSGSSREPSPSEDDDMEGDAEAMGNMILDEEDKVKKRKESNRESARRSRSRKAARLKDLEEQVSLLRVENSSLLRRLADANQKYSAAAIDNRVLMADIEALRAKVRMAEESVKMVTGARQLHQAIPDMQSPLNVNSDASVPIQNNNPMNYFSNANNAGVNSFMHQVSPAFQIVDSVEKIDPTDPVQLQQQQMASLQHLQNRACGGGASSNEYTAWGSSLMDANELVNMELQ
# Assay: protein-binding microarray (RPBM); PBS, 2% BSA, 51.3 ng/ul salmon testes DNA, 50 uM zinc acetate, 200 nM TF, 25 C, 1 h; high values mean tight binding
# Settings: protein: recombinant; tags: N-terminal polyhistidine and DsRed monomer fusion (pET32a); chain copies: 2; label: CyDye5-dUTP incorporated in the synthesized complementary strand; 3' TTTTT single-stranded linker to array surface; dsDNA, one strand shown
# Summary of the method: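 The binding signal for each feature is its fluorescence intensity in arbitrary units. An Axon 4000B scanner was used to read a custom Agilent array that had been made double-stranded with Cy5-dUTP primer extension, blocked with 2% BSA, incubated at 25 °C for 1 h with 200 nM protein in PBS, 2% BSA, salmon testes DNA and 50 µM zinc acetate, and washed. The protein was an N-terminal polyhistidine–DsRed transcription factor fusion from E. coli BL21-CodonPlus, purified on Ni–NTA.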
row,Sequence,binding signal
1,ACTACTACCTCTTTGTACAAATGTATGACGTTGGTTAGTTCGGAGTCACCTAGTGCAG,4600 fluorescence intensity (a.u.)
2,CAGAAAGTGTTGACTCGGATTTGACGATTGGGTCGTGGTTCGGAGTCACCTAGTGCAG,6630 fluorescence intensity (a.u.)
3,GAGGACGGGAGGCTTCCTCGCCACGCCGCCCTCGCCGCCGCGGAGTCACCTAGTGCAG,3570 fluorescence intensity (a.u.)
4,ATGGTGCTACCGTAAATATTTGCTAATAACAGATTAATCACGGAGTCACCTAGTGCAG,28700 fluorescence intensity (a.u.)
5,CATAATATGGTAGTGTTGTTTCTCATGCAAGTATTGGCGTCGGAGTCACCTAGTGCAG,3160 fluorescence intensity (a.u.)
6,CCGCGCCCGCCTCGCCGACTTTGGTCTCTCCCGCATCAATCGGAGTCACCTAGTGCAG,3400 fluorescence intensity (a.u.)
7,TGACCTAATACATTCATGCTGACTAGCGTTTACGTGGCAACGGAGTCACCTAGTGCAG,14100 fluorescence intensity (a.u.)
8,CTTCTCCCCTCGCCACCTCGGACTCGACCCCGTCCATGACCGGAGTCACCTAGTGCAG,4750 fluorescence intensity (a.u.)
9,CGCCGATGACTCCGCGCCGCTCGGCCTCGTCGTCATCGGCCGGAGTCACCTAGTGCAG,5580 fluorescence intensity (a.u.)
10,GCCCGGCCGCGCCCGCACATGCACGCGTGCACTCAGAGAACGGAGTCACCTAGTGCAG,3170 fluorescence intensity (a.u.)
11,CAACTCGCGAGCCCGTCACGTCACGCTTCGCACCCACCAGCGGAGTCACCTAGTGCAG,8080 fluorescence intensity (a.u.)
12,GGAATGTGAGGGGATCCACGTCACACAAGTATATATATTACGGAGTCACCTAGTGCAG,10600 fluorescence intensity (a.u.)
13,GGATTGGCGGCGATGATGGCTCCTTCAAATCCGCTTCCTCCGGAGTCACCTAGTGCAG,7430 fluorescence intensity (a.u.)
14,GGGAGGGAGCCAGAGCGGCGGGCGTGGGGTTGGAGGAGGGCGGAGTCACCTAGTGCAG,4200 fluorescence intensity (a.u.)
15,AGAGAGTAGGCTGACCTGGACAAGCTGACACGTGAGGCCCCGGAGTCACCTAGTGCAG,11400 fluorescence intensity (a.u.)
16,TGACCATTGGTCATGGGGTTGACGAACTGACACGCAGCAACGGAGTCACCTAGTGCAG,3320 fluorescence intensity (a.u.)
17,TACTACACGTACTCCACGTATATACTACGGGGAAAGAAGACGGAGTCACCTAGTGCAG,4500 fluorescence intensity (a.u.)
18,CCTCCTCCCATGGCTCCACTGGATTCCGGCGGCGTCACCGCGGAGTCACCTAGTGCAG,4550 fluorescence intensity (a.u.)
19,ACGGCGACGTCGAGCGGGTTCTGCGGAACGTGGCGCAATGCGGAGTCACCTAGTGCAG,3570 fluorescence intensity (a.u.)
20,TTTCGTGGAGATCGCTCGTGTCCTCCGCCGCGCAAGGCGCCGGAGTCACCTAGTGCAG,3590 fluorescence intensity (a.u.)
21,AGACAATCCTTTTGATGCTAGTGATGACGAGGATACCGAACGGAGTCACCTAGTGCAG,4100 fluorescence intensity (a.u.)
22,CGTCCTCAACCGTGACGCCGCCGCGCGCCTCACCATCTCGCGGAGTCACCTAGTGCAG,4920 fluorescence intensity (a.u.)
23,CAGCCGCATCCTCCACCGTCCACGCCACGTCGGGGCTCGTCGGAGTCACCTAGTGCAG,8720 fluorescence intensity (a.u.)

# Copied from above: entries 5 to 10
row,Sequence,binding signal
5,CATAATATGGTAGTGTTGTTTCTCATGCAAGTATTGGCGTCGGAGTCACCTAGTGCAG,3160 fluorescence intensity (a.u.)
6,CCGCGCCCGCCTCGCCGACTTTGGTCTCTCCCGCATCAATCGGAGTCACCTAGTGCAG,3400 fluorescence intensity (a.u.)
7,TGACCTAATACATTCATGCTGACTAGCGTTTACGTGGCAACGGAGTCACCTAGTGCAG,14100 fluorescence intensity (a.u.)
8,CTTCTCCCCTCGCCACCTCGGACTCGACCCCGTCCATGACCGGAGTCACCTAGTGCAG,4750 fluorescence intensity (a.u.)
9,CGCCGATGACTCCGCGCCGCTCGGCCTCGTCGTCATCGGCCGGAGTCACCTAGTGCAG,5580 fluorescence intensity (a.u.)
10,GCCCGGCCGCGCCCGCACATGCACGCGTGCACTCAGAGAACGGAGTCACCTAGTGCAG,3170 fluorescence intensity (a.u.)
